From paper PMC5749020
These are yes or no findings as the source states them, for the method shown. Binding seen in cells or lysates may run through a third protein. Some entries that bind do so weakly or less than the wild type.

Sequences of proteins named here, by UniProt entry; tags and fusion partners are left off. Residues count along the entry.
UniProt P05556: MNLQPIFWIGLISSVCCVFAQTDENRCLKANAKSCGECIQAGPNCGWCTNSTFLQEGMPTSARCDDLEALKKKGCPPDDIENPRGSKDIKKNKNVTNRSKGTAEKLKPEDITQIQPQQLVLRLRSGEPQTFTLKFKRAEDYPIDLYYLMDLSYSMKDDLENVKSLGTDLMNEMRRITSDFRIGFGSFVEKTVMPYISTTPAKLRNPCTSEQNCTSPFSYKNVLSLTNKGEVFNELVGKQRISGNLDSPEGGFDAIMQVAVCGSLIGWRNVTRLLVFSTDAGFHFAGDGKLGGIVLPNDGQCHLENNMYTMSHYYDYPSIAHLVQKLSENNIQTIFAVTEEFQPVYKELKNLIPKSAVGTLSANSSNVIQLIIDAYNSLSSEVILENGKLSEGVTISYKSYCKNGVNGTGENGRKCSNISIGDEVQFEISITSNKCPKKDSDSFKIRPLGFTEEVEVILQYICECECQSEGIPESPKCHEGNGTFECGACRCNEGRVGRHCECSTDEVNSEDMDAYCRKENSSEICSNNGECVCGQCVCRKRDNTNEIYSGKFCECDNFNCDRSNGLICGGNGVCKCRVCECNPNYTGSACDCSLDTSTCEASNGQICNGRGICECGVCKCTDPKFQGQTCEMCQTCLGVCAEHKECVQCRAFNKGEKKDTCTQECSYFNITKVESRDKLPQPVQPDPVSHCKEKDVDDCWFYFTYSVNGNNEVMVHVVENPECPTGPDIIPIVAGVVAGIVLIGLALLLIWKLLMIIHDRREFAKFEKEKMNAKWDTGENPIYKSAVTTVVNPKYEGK
UniProt P37173, residues 23-567: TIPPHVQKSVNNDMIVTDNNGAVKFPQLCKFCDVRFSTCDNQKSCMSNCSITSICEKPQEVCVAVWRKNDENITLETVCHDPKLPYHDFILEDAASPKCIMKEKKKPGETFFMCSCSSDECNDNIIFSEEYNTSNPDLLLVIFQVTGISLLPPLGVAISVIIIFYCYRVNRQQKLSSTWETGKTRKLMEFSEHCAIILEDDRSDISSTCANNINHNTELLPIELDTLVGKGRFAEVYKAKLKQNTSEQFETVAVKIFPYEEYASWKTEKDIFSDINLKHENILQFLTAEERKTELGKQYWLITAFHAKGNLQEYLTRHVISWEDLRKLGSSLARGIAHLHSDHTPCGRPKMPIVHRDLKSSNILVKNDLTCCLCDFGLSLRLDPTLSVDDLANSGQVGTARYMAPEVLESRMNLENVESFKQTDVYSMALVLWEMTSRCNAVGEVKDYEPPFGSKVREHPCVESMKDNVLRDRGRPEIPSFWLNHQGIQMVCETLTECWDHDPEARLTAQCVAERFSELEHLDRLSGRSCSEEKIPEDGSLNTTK

T1: β3 integrin (human (endogenous in umbilical cord ECs)), P05106
T1 chain: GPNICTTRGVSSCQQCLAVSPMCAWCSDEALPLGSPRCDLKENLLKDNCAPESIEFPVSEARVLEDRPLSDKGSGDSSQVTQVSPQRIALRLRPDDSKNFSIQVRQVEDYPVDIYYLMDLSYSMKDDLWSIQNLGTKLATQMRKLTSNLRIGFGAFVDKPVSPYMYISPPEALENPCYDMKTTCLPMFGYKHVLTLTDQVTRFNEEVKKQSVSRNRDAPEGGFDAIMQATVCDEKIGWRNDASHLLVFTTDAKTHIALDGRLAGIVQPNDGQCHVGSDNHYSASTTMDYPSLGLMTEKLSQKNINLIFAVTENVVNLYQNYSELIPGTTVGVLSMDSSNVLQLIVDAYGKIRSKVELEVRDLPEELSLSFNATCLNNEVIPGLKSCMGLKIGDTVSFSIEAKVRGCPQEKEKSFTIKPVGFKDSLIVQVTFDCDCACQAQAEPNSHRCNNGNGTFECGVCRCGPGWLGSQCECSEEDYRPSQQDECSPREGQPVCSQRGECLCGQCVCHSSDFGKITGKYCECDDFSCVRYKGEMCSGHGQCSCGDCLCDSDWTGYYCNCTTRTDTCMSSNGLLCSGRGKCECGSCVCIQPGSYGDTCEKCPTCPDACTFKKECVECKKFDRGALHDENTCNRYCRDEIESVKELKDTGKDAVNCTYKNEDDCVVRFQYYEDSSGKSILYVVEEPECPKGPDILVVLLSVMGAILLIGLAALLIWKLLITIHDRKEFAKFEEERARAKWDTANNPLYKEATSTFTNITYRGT


Tests used:
Assay in all cases: co-IP; immunoprecipitation with an antibody against β1 or β3 integrin from EC lysates, Western blot with antibodies against TβRI and TβRII; ECs plated on FN or LM, static or OSS (0.5 ± 4 dyn/cm^2) for 1 h or 24 h; lysis buffer 25 mM Hepes pH 7.4, 1% Triton X-100, 1% deoxycholate, 0.1% SDS, 0.125 M NaCl, 5 mM EDTA
[1] = molecular target: β1 integrin (human (endogenous in umbilical cord ECs)) (UniProt P05556)
[2] = molecular target: β3 integrin (human (endogenous in umbilical cord ECs)) (UniProt P05106)
[3] = molecular target: T1, β3 integrin (human (endogenous in …)); settings: remark: other sources report otherwise

binding [1] | binding [2] | binding [3] | Molecule
binds | binds |  | TGF-β receptor type II (from UniProt P37173 23-567)
binds |  |  | TGF-β receptor type I (receptor, UniProt P36897 34-503) LQCFCHLCTKDNFTCVTDGLCFVSVTETTDKVIHNSMCIAEIDLIPRDRPFVCAPSSKTGSVTTTYCCNQDHCNKIELPTTVKSSPGLGPVELAAVIAGPVCFVCISLMLMVYICHNRTVIHHRVPNEEDPSLDRPFISEGTTLKDLIYDMTTSGSGSGLPLLVQRTIARTIVLQESIGKGRFGEVWRGKWRGEEVAVKIFSSREERSWFREAEIYQTVMLRHENILGFIAADNKDNGTWTQLWLVSDYHEHGSLFDYLNRYTVTVEGMIKLALSTASGLAHLHMEIVGTQGKPAIAHRDLKSKNILVKKNGTCCIADLGLAVRHDSATDTIDIAPNHRVGTKRYMAPEVLDDSINMKHFESFKRADIYAMGLVFWEIARRCSIGGIHEDYQLPYYDLVPSDPSVEEMRKVVCEQKLRPNIPNRWQSCEALRVMAKIMRECWYANGAARLTALRIKKTLSQLSQQEGIKM
 |  | binds | TGF-β receptor type I, P36897 34-503 (receptor) LQCFCHLCTKDNFTCVTDGLCFVSVTETTDKVIHNSMCIAEIDLIPRDRPFVCAPSSKTGSVTTTYCCNQDHCNKIELPTTVKSSPGLGPVELAAVIAGPVCFVCISLMLMVYICHNRTVIHHRVPNEEDPSLDRPFISEGTTLKDLIYDMTTSGSGSGLPLLVQRTIARTIVLQESIGKGRFGEVWRGKWRGEEVAVKIFSSREERSWFREAEIYQTVMLRHENILGFIAADNKDNGTWTQLWLVSDYHEHGSLFDYLNRYTVTVEGMIKLALSTASGLAHLHMEIVGTQGKPAIAHRDLKSKNILVKKNGTCCIADLGLAVRHDSATDTIDIAPNHRVGTKRYMAPEVLDDSINMKHFESFKRADIYAMGLVFWEIARRCSIGGIHEDYQLPYYDLVPSDPSVEEMRKVVCEQKLRPNIPNRWQSCEALRVMAKIMRECWYANGAARLTALRIKKTLSQLSQQEGIKM
